Reference: paper PMC7251110
Changes are numbered by the printed parent chain. No constants are given. Whether binding was seen depends on the method and setting. Binding seen in cells or lysates may run through a third protein. Some binding calls cover weakened binding; strength is not graded here. For some of these results: Tags and fused reporters may be left off the sequences shown.

Chains of the proteins cited; added tags and fusions are not shown.
UniProt Q9H8M2: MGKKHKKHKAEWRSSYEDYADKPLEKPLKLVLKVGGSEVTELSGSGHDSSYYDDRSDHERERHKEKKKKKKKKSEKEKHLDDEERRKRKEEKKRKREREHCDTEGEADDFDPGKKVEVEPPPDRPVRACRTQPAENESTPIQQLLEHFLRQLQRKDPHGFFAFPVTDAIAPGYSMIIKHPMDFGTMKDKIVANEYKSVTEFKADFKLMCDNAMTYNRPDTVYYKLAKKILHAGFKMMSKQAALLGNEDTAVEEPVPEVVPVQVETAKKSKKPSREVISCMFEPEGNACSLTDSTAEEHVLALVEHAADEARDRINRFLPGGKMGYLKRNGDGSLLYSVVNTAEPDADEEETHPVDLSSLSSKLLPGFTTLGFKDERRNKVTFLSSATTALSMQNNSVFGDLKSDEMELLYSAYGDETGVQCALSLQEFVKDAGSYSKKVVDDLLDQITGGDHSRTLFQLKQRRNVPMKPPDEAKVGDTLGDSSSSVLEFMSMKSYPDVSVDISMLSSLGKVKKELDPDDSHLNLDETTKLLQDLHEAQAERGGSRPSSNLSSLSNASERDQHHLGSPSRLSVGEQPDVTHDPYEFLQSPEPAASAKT
UniProt Q06609: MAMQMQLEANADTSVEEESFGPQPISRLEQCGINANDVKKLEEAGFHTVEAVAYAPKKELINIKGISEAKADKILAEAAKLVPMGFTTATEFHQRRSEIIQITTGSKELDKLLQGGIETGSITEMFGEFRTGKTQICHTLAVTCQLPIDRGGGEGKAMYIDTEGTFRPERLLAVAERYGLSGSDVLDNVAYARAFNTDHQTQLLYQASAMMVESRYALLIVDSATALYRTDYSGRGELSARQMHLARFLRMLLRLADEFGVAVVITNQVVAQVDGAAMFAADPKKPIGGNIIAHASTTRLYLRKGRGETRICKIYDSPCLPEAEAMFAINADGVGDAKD

T1: RAD54-HA K515R mutant (UniProt Q92698)
T1 sequence: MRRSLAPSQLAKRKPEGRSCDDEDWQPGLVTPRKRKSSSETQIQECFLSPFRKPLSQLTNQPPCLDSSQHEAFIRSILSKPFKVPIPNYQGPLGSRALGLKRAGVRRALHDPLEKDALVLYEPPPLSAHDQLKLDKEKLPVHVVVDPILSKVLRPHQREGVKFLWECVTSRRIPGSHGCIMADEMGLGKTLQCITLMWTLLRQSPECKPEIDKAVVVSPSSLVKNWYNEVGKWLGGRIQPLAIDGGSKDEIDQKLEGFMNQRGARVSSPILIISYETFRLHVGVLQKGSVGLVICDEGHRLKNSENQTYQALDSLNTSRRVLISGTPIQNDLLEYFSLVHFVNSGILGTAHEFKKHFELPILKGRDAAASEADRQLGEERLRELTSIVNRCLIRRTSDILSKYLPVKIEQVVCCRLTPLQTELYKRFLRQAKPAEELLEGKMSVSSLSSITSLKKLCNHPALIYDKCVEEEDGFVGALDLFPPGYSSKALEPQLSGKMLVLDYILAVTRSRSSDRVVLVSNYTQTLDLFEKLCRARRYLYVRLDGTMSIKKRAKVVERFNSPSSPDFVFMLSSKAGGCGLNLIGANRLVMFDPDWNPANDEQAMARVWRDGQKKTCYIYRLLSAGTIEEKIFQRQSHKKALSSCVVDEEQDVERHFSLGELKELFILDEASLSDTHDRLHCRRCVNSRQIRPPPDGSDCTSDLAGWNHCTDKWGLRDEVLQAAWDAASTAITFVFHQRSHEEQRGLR

T2: RAD54-HA (wild type) (UniProt Q92698)
T2 sequence: T1 sequence with R515K

B1: RAD54 (detected with anti-RAD54 antibody in cell lysates) (protein, UniProt Q92698 1-747)
chain: T1 sequence with R515K

Experiments:
[1] = biological target: T1, RAD54-HA K515R mutant; test: co-IP; 293T cells transfected with RAD54-HA (WT or K515R) and the indicated plasmids (GCN5, PCAF, HDAC6, HDAC11), no IR or 10-Gy IR, lysates after 8 h, anti-HA beads
[2] = biological target: T2, RAD54-HA (wild type); test: as above
[3] = biological target: HA-tagged BRD9 (wild type) (UniProt Q9H8M2); test: co-IP; 293T cells transfected with HA-BRD9 constructs, with or without 10-Gy IR, anti-HA beads, blots for RAD51 and RAD54; NETN buffer, 4 °C
[4] = biological target: BRD9 (untagged, detected or precipitated with anti-BRD9 antibody) (human (endogenous in OVCAR8 and 293T)) (UniProt Q9H8M2); test: co-IP; endogenous; OVCAR8 cells, 10-Gy IR, lysates after 8 h, anti-BRD9 antibody on protein A-Sepharose; NETN buffer, 4 °C
[5] = biological target: HA-tagged BRD9 (wild type) (UniProt Q9H8M2); test: co-IP; 293T cells transfected with the indicated constructs, exposed to BRD9i (I-BRD9) and 10-Gy IR, lysates after 8 h, anti-HA beads

Row | Molecule | binding [1] | binding [2] | binding [3] | binding [4] | binding [5]
1 | BRD9 (untagged, detected or precipitated with anti-BRD9 antibody) (from UniProt Q9H8M2 1-597) | no binding | binds |  |  | 
2 | RAD51 (detected with anti-RAD51 antibody in cell lysates) (from UniProt Q06609 1-339) |  |  | binds | binds | 
3 | B1 |  |  | binds | binds | no binding (condition: cells exposed to BRD9i (I-BRD9))
